Values quoted from earlier work in patent US5155215A, “Polychelating agents for image and spectral enhancement (and spectral shift)” (priority 1990, dated 1992).
At least one compound was matched to its structure with a doubt left.

Conditions: cited from earlier work

[Gd] [Gd, gadolinium]
Decrease in relaxivity of Gd on chelation: 1/2
